Source: paper PMC12385072

Amino acid sequences for entries named in this document (tags omitted). Residues count along the entry.
UniProt P63138, residues 26-474: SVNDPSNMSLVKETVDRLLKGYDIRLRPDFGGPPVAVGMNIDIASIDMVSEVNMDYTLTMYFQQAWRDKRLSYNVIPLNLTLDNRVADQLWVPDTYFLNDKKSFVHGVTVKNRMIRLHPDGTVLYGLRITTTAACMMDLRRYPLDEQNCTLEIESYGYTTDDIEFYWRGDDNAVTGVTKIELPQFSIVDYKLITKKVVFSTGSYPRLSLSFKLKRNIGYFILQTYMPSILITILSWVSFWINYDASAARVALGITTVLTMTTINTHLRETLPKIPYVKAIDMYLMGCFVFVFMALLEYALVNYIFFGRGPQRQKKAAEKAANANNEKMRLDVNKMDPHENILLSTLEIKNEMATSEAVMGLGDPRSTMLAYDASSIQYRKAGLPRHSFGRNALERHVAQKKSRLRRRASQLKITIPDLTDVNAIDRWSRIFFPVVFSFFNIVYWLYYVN
UniProt P63079, residues 26-473: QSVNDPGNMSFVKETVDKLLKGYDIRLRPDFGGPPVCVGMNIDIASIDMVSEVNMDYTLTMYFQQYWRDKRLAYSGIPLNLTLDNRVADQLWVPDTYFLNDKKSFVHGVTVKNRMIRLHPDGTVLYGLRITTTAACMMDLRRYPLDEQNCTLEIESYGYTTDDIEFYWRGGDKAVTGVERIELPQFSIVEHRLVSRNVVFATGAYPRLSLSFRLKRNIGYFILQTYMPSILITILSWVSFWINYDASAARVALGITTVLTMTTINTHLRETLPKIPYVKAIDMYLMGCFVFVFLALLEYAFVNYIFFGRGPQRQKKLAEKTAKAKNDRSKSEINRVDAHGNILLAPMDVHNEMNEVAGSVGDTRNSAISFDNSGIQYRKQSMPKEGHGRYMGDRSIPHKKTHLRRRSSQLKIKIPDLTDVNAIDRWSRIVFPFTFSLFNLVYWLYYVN
UniProt P62813, residues 28-455: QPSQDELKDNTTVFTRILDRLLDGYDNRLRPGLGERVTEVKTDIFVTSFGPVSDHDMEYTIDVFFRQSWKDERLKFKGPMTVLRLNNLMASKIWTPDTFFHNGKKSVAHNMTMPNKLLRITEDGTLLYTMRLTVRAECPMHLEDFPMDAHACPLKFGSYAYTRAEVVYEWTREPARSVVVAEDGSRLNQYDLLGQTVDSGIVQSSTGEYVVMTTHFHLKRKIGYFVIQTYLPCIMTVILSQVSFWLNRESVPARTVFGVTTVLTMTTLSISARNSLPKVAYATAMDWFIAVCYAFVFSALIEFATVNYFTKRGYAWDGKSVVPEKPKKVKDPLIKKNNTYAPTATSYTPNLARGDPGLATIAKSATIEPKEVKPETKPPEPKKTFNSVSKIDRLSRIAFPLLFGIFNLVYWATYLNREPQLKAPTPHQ
UniProt Q8CFN2: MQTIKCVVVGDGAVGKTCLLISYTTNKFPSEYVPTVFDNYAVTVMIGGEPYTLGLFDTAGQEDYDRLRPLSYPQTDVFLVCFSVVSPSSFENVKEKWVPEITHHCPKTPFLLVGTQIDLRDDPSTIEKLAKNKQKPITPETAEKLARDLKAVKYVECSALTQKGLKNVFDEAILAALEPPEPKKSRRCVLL

T1: RIPSYR peptide (TARPγ2-derived, 225-RIPSYR-230)
T1 sequence (peptide): RIPSYR

B1: Basp1 (protein, UniProt Q05175 1-220)
chain: MGSKLSKKKKGYNVNDEKAKDKDKKAEGAGTEEEGTQKESEPQAAADATEVKESAEEKPKDAADGEAKAEEKEADKAAAKEEAPKAEPEKSEGAAEEQPEPAPAPEQEAAAPGPAAGGEAPKAGEASAESTGAADGAPQEEGEAKKTEAPAAGPEAKSDAAPAASDSKPSTEPAPSSKETPAASEAPSSAAKAPAPAAPAAEPQAEAPVASSEQSVAVKE
B2: Marcks (protein, UniProt P30009 1-309)
chain: MGAQFSKTAAKGEAAAERPGEAAVASSPSKANGQENGHVKVNGDASPAAAEPGAKEELQANGSAPAADKEEPASGGAATPAAADKDEAAAAPEPGAATADKEAAEAEPAEPGSPSAETEGASASSTSSPKAEDGAAPSPSSETPKKKKKRFSFKKSFKLSGFSFKKSKKEAGEGAEAEGATADGAKDEAAAAAGGDAAAAPGEQAGGAGAEGAEGGESREAEAAEPEQPEQPEQPAAEEPRAEEPSEAVGEKAEEPAPGATADDAPSAAGPEQEAPAATDEPAASAAPSASPEPQPECSPEAPPAPVAE

Molecular target: T1, RIPSYR peptide (TARPγ2-derived, 225-RIPSYR-230)
Assay: affinity purification with mass spectrometry; RIPSYR covalently coupled (EDC/NHS) to carboxy magnetic beads, uncoupled (blank) beads as control; rat hippocampal synaptosome lysate (1% Triton X-100, 50 mM Tris Cl, 300 mM NaCl, pH 7.4) added, 2 h at 4 °C; eluted with 2% SDS; TMT-labelled LC-MS/MS, abundance ratio of RIPSYR-coupled bead to blank bead; only the target purified

binding, binds:
Gabrb2 (from UniProt P63138 26-474) (receptor)
Gabrb3 (from UniProt P63079 26-473) (receptor)
Gabra1 (GABA receptor subunit alpha 1) (from UniProt P62813 28-455)
Cdc42 (from UniProt Q8CFN2 1-191)
B1
B2

No constants are given. Whether binding was seen depends on the method and setting. Binding seen in cells or lysates may run through a third protein. Here binding means that the protein was enriched with, or labelled near, the bait; the list need not be complete.
